Taken from: PubChem BioAssay AID1259254 (NCATS, 2017)

Purpose: 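Gene knock-downs that lead to re-replication, shown by excess G2 DNA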 (primary screen)
System: human HCT116 colorectal cancer cells
Reagent: single siRNA against human genes
Time to read-out: 3 days
Measurement: 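Nuclei stained with Hoechst and imaged; cell-cycle phase assigned by DNA content; G2 share scaled per plate, non-targeting siRNA 0%, GMNN siRNA 100%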
Direction: G2 robust z-score: higher = more G2 cells, more excess DNA replication
Call rule: 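An siRNA counts as active if its G2 robust z-score lies at least 5 MADs above the screen median; here such calls match roughly 38% of GMNN control or more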
In all, the deposit lists about 59,000 reagents; this is a part drawn at random. About 1,550 of them (2.6%) count as active. 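G2 share is only a proxy for re-replication; each gene was hit by three separate siRNAs, and active genes were retested.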 Reagents against one gene are numbered here. Further read-outs or replicates are left out here. Not given: the amount of reagent.

G2 robust z-score, by target gene and reagent
TSPYL2 (TSPY like 2): #1 -0.825 inactive; #2 -0.567 inactive; #3 1.47 inactive
WFDC8 (WAP four-disulfide core domain 8): #1 0.682 inactive; #2 -0.36 inactive; #3 -0.247 inactive
SLC40A1: #1 -0.366 inactive; #2 -0.741 inactive; #3 13.3 active
EZH2 (enhancer of zeste 2 polycomb repressive complex 2 subunit): #1 -1.6 inactive; #2 -0.0774 inactive; #3 1.58 inactive
MSMP (microseminoprotein, prostate associated): #1 -0.162 inactive; #2 -0.705 inactive; #3 -1.03 inactive
ENTREP2 (endosomal transmembrane epsin interactor 2): #1 -1.06 inactive; #2 -1.31 inactive; #3 1.28 inactive
LIPJ (lipase family member J): #1 -0.801 inactive; #2 5.11 active; #3 -1.24 inactive
PNRC1 (proline rich nuclear receptor coactivator 1): #1 1.99 inactive; #2 -0.53 inactive; #3 -0.592 inactive
PDGFA (platelet derived growth factor subunit A): #1 -0.508 inactive; #2 2.38 inactive; #3 0.329 inactive
BRAP (BRCA1 associated protein): #1 3.11 inactive; #2 -0.107 inactive; #3 -0.251 inactive
CD46 (CD46 molecule): #1 -0.433 inactive; #2 -0.761 inactive; #3 0.723 inactive
GORASP1 (golgi reassembly stacking protein 1): #1 1.12 inactive; #2 4.42 inactive; #3 1.4 inactive
LOC402715 (karyopherin subunit alpha 2 pseudogene): #1 0.147 inactive; #2 -0.58 inactive; #3 -0.787 inactive
CIAO2B (cytosolic iron-sulfur assembly component 2B): #1 -0.42 inactive; #2 -0.919 inactive; #3 -0.863 inactive
COL18A1 (collagen type XVIII alpha 1 chain): #1 -0.513 inactive; #2 -0.0876 inactive; #3 -0.258 inactive
HES3 (hes family bHLH transcription factor 3): #1 -0.432 inactive; #2 2.1 inactive; #3 -0.431 inactive
TRIT1 (tRNA isopentenyltransferase 1): #1 -0.672 inactive; #2 -0.431 inactive; #3 0.139 inactive
PRKAR2A: #1 1.49 inactive; #2 -0.481 inactive; #3 -0.278 inactive
VPS41 (VPS41 subunit of HOPS complex): #1 -0.382 inactive; #2 0.652 inactive; #3 -0.962 inactive
TIGAR (TP53 induced glycolysis regulatory phosphatase): #1 -1.27 inactive; #2 1.18 inactive; #3 3.66 inactive
METTL14: #1 0.826 inactive; #2 1.62 inactive; #3 3.2 inactive
MRPS7 (mitochondrial ribosomal protein S7): #1 -0.173 inactive; #2 -0.489 inactive; #3 3.7 inactive
ELFN2: #1 1.24 inactive; #2 -1.2 inactive; #3 -0.565 inactive
